Measurements taken from patent US20130217633A1.
Results are given in words; binding and its absence hold for the method and conditions named. In cells and extracts the contact can be indirect. Some binding calls cover weakened binding; strength is not graded here.

By UniProt entry, the sequences of proteins in these tests, tags left out.
UniProt P10415: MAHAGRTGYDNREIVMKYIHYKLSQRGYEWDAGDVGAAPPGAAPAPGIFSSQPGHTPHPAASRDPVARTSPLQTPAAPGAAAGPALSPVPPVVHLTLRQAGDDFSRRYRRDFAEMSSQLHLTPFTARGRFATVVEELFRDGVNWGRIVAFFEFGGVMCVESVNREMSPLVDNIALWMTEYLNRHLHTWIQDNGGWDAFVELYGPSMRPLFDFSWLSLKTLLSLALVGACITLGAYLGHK

Molecular target: wild type Bcl-2 (overexpressed in WEHI7.2 cells) (UniProt P10415)
Experiment: biotin-streptavidin pull-down from WEHI7.2 lysate, western blot for Bcl-2

Binder: NVYTEIKCNSLLPLAAIVRV (biotin (position not given)) [biotin-IDPDD/AA]
- binding: binds
